From article PMC11408250

T1: PCDH19-HA-FLAG (Protocadherin 19, endogenous in Pcdh19-HA-FLAG mice) (mouse (endogenous in mouse brain)) (UniProt Q80TF3)
T1 sequence: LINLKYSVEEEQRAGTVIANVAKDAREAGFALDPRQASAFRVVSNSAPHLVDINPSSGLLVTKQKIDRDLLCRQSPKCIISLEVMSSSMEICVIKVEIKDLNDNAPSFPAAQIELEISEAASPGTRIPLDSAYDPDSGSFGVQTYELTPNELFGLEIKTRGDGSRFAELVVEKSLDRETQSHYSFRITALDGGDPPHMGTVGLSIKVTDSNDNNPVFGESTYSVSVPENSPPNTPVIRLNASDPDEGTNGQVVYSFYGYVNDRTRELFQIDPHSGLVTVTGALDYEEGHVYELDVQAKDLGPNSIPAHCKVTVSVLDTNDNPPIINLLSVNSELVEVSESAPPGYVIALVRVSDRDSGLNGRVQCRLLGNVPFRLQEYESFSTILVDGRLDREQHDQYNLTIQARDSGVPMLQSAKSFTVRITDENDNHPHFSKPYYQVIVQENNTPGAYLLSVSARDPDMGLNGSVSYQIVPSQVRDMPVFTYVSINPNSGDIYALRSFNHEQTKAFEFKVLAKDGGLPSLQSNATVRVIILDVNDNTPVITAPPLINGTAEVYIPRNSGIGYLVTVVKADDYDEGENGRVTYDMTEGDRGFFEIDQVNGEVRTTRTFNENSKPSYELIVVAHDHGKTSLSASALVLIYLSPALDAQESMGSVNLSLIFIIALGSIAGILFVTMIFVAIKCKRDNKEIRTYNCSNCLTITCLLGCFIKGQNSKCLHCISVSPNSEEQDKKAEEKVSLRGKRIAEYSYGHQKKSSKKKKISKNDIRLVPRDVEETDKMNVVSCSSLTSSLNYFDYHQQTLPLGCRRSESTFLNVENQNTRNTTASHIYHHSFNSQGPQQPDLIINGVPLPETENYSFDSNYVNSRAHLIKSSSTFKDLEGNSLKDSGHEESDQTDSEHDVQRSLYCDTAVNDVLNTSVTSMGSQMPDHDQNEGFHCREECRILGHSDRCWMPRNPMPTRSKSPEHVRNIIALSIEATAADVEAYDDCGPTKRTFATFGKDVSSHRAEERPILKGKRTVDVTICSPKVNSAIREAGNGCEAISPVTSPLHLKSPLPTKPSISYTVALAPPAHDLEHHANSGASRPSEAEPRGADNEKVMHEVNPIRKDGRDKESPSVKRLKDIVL

B1: Actin Binding LIM Protein 1 (protein, UniProt Q8K4G5 1-861)
chain: MPSLLGLKCLGKLCSSEIGKVPSPERASLRNSHRRLLIEDLSVPETPDPAHRRRGTVIHLVYLYSAGCGPPELRFSSYDPSVAHPQDPHHSSEKPVIHCHKCGEPCKGEVLRVQTKHFHIKCFTCKVCGCDLAQGGFFIKNGDYLCTLDYQRMYGTRCHGCGEFVEGEVVTALGKTYHPNCFACTICKRPFPPGDRVTFNGRDCLCQLCAQPMSSSPKEASCSSNCAGCGRDIKNGQALLALDKQWHLGCFKCKSCGKVLTGEYISKDGSPYCEKDYQGLFGVKCEACHQFITGKVLEAGDKHYHPSCARCSRCNQMFTEGEEMYLQGSTVWHPDCKQSTKTEEKLRPPNIPRSSSDFFYPKSLIRRTGRSPALQLLSPPCLTNSNKNPRQPTRTSSESIYSRPGSSIPGSPGHTIYAKVDNEILDYKDLAAIPKVKAIYDIERPDLITYEPFYTSGYEDKQERQSLGESPRTLSPTPSAEGYQDVRDRMIHRSTSQGSINSPVYSRHSYTPTTSRSPQHFHRPELLSPGVHRWSPLRTSSFSSTHSDSRPNPPFRHHFLPHVKGNEPSSGRNSPLPYRPDSRPLTPTYAQAPKHFHVPDQGINIYRKPPIYKQHAALAAQSKASEDIIKFSKFPAAQAPDPNEIPKIETDHWPGPPSLAAVGTDPRRRSSGREEDEEELLRRRQLQEEQLMKLNSGLGQLILKEEMEKESRERASLASRYDSPLHSASHAPSSKTSSLPGYGKNGLHRPVSTDFAQYNSYGDISGGVRDYQTLPDGHMPAVRMDRGVSMPNMLEPKIFPYEMLMVTNRGRNKILRDVDRTRLERHLAPEVFWEIFGMSIQEFDKLPLWRRNDMKKKAKLF
B2: Catenin Alpha 2 (mouse, endogenous) (protein, UniProt Q61301 1-953)
chain: MTSATSPIILKWDPKSLEIRTLTVERLLEPLVTQVTTLVNTSNKGPSGKKKGRSKKAHVLAASVEQATQNFLEKGEQIAKESQDLKEELVAAVEDVRKQGETMRIASSEFADDPCSSVKRGTMVRAARALLSAVTRLLILADMADVMRLLSHLKIVEEALEAVKNATNEQDLANRFKEFGKEMVKLNYVAARRQQELKDPHCRDEMAAARGALKKNATMLYTASQAFLRHPDVAATRANRDYVFKQVQEAIAGISSAAQATSPTDEAKGHTGIGELAAALNEFDNKIILDPMTFSEARFRPSLEERLESIISGAALMADSSCTRDDRRERIVAECNAVRQALQDLLSEYMNNTGRKEKGDPLNIAIDKMTKKTRDLRRQLRKAVMDHISDSFLETNVPLLVLIEAAKSGNEKEVKEYAQVFREHANKLVEVANLACSISNNEEGVKLVRMAATQIDSLCPQVINAALTLAARPQSKVAQDNMDVFKDQWEKQVRVLTEAVDDITSVDDFLSVSENHILEDVNKCVIALQEGDVDTLDRTAGAIRGRAARVIHIINAEMENYEAGVYTEKVLEATKLLSETVMPRFAEQVEVAIEALSANVPQPFEENEFIDASRLVYDGVRDIRKAVLMIRTPEELEDDSDFEQEDYDVRSRTSVQTEDDQLIAGQSARAIMAQLPQEEKAKIAEQVEIFHQEKSKLDAEVAKWDDSGNDIIVLAKQMCMIMMEMTDFTRGKGPLKNTSDVINAAKKIAEAGSRMDKLARAVADQCPDSACKQDLLAYLQRIALYCHQLNICSKVKAEVQNLGGELIVSGTGVQSTFTTFYEVDCDVIDGGRASQLSTHLPTCAEGAPIGSGSSDSSMLDSATSLIQAAKNLMNAVVLTVKASYVASTKYQKVYGTAAVNSPVVSWKMKAPEKKPLVKREKPEEFQTRVRRGSQKKHISPVQALSEFKAMDSF
B3: Catenin Delta 2 (protein, UniProt O35927 1-1247)
chain: MFARKQSGAAPFGAMPVPDQPPSASEKNSSLSPGLNTSNGDGSETETTSAILASVKEQELQFERLTRELEAERQIVASQLERCKLGSETGSMSSISSAGEQFHWQTQDGQKDIEDELTTGLELVDSCIRSLQESGILDPQDYSTSERPSLLSQSALQLNSKPEGSFQYPASYHSNQTLALGDTAPSQLPARSTQARAAGQSFSQGTTGRAGHLAGSEPAPPPPPPREPFAPSLGSAFHLPDAPPAAAALYYSSSTLPAPPRGGSPLTTTQGGSPTKLQRGGSAPEGAAYAAPRGSSPKQSPSRLAKSYSTSSPINIVVSSAGLSPIRVTSPPTVQSTISSSPIHQLSSTIGTYATLSPTKRLVHASEQYSKHSQELYATATLQRPGSLAAGSRASYSSQHGHLAPELRALQSPEHHIDPIYEDRVYQKPPMRSLSQSQGDPLPPAHTGTFRTSTAPSSPGVDSVPLQRTGSQHGPQNAAAATFQRASYAAGPASNYADPYRQLQYCASVDSPYSKSGPALPPEGTLARSPSIDSIQKDPREFGWRDPELPEVIQMLQHQFPSVQSNAAAYLQHLCFGDNKIKAEIRRQGGIQLLVDLLDHRMTEVHRSACGALRNLVYGKANDDNKIALKNCGGIPALVRLLRKTTDLEIRELVTGVLWNLSSCDALKMPIIQDALAVLTNAVIIPHSGWENSPLQDDRKIQLHSSQVLRNATGCLRNVSSAGEEARRRMRECDGLTDALLYVIQSALGSSEIDSKTVENCVCILRNLSYRLAAETSQGQHMGTDELDGLLCGETNGKDTESSGCWGKKKKKKKSQDQWDGVGPLPDCAEPPKGIQMLWHPSIVKPYLTLLSECSNPDTLEGAAGALQNLAAGSWKGWAEDVAGMAYALRSLPEGAPCLPQWSVYIRAAVRKEKGLPILVELLRIDNDRVVCAVATALRNMALDVRNKELIGKYAMRDLVHRLPGGNNSNNSGSKAMSDDTVTAVCCTLHEVITKNMENAKALRDAGGIEKLVGISKSKGDKHSPKVVKAASQVLNSMWQYRDLRSLYKKDGWSQYHFVASSSTIERDRQRPYSSSRTPSISPVRVSPNNRSASAPASPREMISLKERKTDYESAGNNATYHGTKGEHTSRKDTMTAQNTGVSTLYRNSYGAPAEDIKQNQVSTQPVPQEPSRKDYETYQPFPNSTRNYDESFFEDQVHHRPPASEYTMHLGLKSTGNYVDFYSAARPYSELNYETSHYPASPDSWV
B4: Histone deacetylase 6 (protein, UniProt Q9Z2V5 1-1149)
chain: MTSTGQDSSTRQRKSRHNPQSPLQESSATLKRGGKKCAVPHSSPNLAEVKKKGKMKKLSQPAEEDLVVGLQGLDLNPETRVPVGTGLVFDEQLNDFHCLWDDSFPESPERLHAIREQLILEGLLGRCVSFQARFAEKEELMLVHSLEYIDLMETTQYMNEGELRVLAETYDSVYLHPNSYSCACLATGSVLRLVDALMGAEIRNGMAVIRPPGHHAQHNLMDGYCMFNHLAVAARYAQKKHRIQRVLIVDWDVHHGQGTQFIFDQDPSVLYFSIHRYEHGRFWPHLKASNWSTIGFGQGQGYTINVPWNQTGMRDADYIAAFLHILLPVASEFQPQLVLVAAGFDALHGDPKGEMAATPAGFAHLTHLLMGLAGGKLILSLEGGYNLRALAKGVSASLHTLLGDPCPMLESCVVPCASAQTSIYCTLEALEPFWEVLERSVETQEEDEVEEAVLEEEEEEGGWEATALPMDTWPLLQNRTGLVYDEKMMSHCNLWDNHHPETPQRILRIMCHLEEVGLAARCLILPARPALDSELLTCHSAEYVEHLRTTEKMKTRDLHREGANFDSIYICPSTFACAKLATGAACRLVEAVLSGEVLNGIAVVRPPGHHAEPNAACGFCFFNSVAVAARHAQIIAGRALRILIVDWDVHHGNGTQHIFEDDPSVLYVSLHRYDRGTFFPMGDEGASSQVGRDAGIGFTVNVPWNGPRMGDADYLAAWHRLVLPIAYEFNPELVLISAGFDAAQGDPLGGCQVTPEGYAHLTHLLMGLAGGRIILILEGGYNLASISESMAACTHSLLGDPPPQLTLLRPPQSGALVSISEVIQVHRKYWRSLRLMKMEDKEECSSSRLVIKKLPPTASPVSAKEMTTPKGKVPEESVRKTIAALPGKESTLGQAKSKMAKAVLAQGQSSEQAAKGTTLDLATSKETVGGATTDLWASAAAPENFPNQTTSVEALGETEPTPPASHTNKQTTGASPLQGVTAQQSLQLGVLSTLELSREAEEAHDSEEGLLGEAAGGQDMNSLMLTQGFGDFNTQDVFYAVTPLSWCPHLMAVCPIPAAGLDVSQPCKTCGTVQENWVCLTCYQVYCSRYVNAHMVCHHEASEHPLVLSCVDLSTWCYVCQAYVHHEDLQDVKNAAHQNKFGEDMPHSH

molecular target: T1, PCDH19-HA-FLAG (Protocadherin 19, endogenous in Pcdh19-HA-FLAG mice) (mouse (endogenous in mouse brain)); experiment: affinity purification with mass spectrometry; Experiment 2, postnatal: PCDH19-HA-FLAG precipitated with anti-FLAG M2 affinity gel from P6-7 mouse cortex and hippocampus lysate, control mouse IgG affinity gel; IP Buffer, overnight 4 °C; LC-MS/MS

Binder	binding
B1	binds
B2	binds
B3	binds
B4	binds

No constants are given. Whether binding was seen depends on the method and setting. In cells and extracts the contact can be indirect. Here binding means that the protein was enriched with, or labelled near, the bait; the list need not be complete. Where a sequence is shown, tags or fusion partners need not be part of it.
